No constants are given. Whether binding was seen depends on the method and setting. In cells and extracts the contact can be indirect. A result given as binding can be weak or reduced; the word gives no strength.
Target: intersectin1 (ITSN1), brain long form ITSN1L (mouse (endogenous in mouse brain synaptic CCV)) (UniProt Q9Z0R4)
Assay: co-IP; CCV coats of canCCV, wt stable CCV and ko stCCV (wt and AP1/σ1B ko mice) solubilised by pH shift 6.4 to 8.0, vesicles removed at 100.000×g, pH set back to 6.4; 5 μg anti-ITSN1 antibody overnight at 4 °C, Protein G sepharose beads, three washes at pH 6.4, elution with non-reducing SDS-PAGE loading buffer, semi-quantitative western blot

Protein sequences, listed by entry. Tags and fused reporters are not part of them.
UniProt Q9Z0R4: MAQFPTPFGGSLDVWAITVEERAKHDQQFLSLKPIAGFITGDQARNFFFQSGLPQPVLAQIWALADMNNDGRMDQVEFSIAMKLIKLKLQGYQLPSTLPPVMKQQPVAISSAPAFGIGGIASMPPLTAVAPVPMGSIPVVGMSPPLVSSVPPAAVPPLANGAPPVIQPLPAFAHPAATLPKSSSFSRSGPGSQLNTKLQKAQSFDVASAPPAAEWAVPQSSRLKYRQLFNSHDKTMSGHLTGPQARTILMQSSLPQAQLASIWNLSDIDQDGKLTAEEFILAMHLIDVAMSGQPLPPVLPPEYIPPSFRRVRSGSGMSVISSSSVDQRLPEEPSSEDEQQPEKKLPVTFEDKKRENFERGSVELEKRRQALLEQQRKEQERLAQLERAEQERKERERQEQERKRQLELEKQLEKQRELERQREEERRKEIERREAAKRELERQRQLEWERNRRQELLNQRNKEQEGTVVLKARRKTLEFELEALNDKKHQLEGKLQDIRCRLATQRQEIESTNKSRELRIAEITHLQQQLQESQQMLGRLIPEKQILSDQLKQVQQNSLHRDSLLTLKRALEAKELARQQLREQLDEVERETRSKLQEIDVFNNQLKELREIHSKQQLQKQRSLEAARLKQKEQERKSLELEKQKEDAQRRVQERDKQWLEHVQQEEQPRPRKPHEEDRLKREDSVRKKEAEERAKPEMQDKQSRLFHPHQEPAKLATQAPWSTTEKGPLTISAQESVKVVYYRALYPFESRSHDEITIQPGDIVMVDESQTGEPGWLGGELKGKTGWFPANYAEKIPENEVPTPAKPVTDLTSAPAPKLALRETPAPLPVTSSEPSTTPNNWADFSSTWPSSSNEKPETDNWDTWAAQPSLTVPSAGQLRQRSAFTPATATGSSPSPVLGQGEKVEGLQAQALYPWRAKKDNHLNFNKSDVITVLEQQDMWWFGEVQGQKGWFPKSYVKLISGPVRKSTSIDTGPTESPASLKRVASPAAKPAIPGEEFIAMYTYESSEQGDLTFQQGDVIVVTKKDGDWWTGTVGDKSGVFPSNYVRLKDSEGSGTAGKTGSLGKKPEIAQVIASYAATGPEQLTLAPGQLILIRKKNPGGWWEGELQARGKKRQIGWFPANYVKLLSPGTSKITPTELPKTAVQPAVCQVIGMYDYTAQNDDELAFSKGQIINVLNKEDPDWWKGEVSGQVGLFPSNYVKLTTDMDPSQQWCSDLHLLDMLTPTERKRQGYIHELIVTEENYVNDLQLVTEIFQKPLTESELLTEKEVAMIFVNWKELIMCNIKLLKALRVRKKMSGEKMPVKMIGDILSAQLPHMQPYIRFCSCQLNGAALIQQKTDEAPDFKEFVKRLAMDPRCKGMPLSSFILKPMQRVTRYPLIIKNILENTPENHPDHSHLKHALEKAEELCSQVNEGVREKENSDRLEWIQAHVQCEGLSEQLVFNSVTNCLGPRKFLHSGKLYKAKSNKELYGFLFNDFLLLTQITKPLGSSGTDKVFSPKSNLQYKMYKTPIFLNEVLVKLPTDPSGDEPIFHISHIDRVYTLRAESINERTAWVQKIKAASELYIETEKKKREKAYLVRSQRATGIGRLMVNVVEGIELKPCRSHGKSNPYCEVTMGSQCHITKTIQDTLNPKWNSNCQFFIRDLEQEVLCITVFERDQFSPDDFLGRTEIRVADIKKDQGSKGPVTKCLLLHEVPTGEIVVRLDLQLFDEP

## synaptojanin1 (from UniProt Q8CHC4-2)
  binding: binds

Source: article PMC8044098
